In experiment [1] the target is OsIRO2-N (truncated IRON-RELATED BHLH …ON FACTOR 2, aa 1-150) (Oryza sativa) (UniProt Q0JFZ0). Description: two-hybrid.
In experiment [2] the target is Myc-OsIRO2 (Oryza sativa) (UniProt Q0JFZ0). Description: co-IP.
Experiment [3] addresses GFP10-OsIRO2 (full-length OsIRO2 fused to the GFP10 fragment) (Oryza sativa) (UniProt Q0JFZ0). Description: split reporter.

No constants are given. Whether binding was seen depends on the method and setting. For part of these data: Binding seen in cells or lysates may run through a third protein. Some results given as binding are weak or reduced against the parent protein; the word gives no strength.

Three substances from publication doi:10.1101/2020.03.06.981126 can be followed below.

“Oryza sativa FER-LIKE FE …-INDUCED …ON FACTOR (OsFIT), full length, in pGADT7 (from UniProt A0A0N7KIY3 1-352)”: the binding entry in experiment [1] was “binds”.
As for “HA-OsFIT (from UniProt A0A0N7KIY3 1-352)”, the binding result in experiment [2] is “binds”.
For “OsFIT-GFP11 (full-length OsFIT fused to the GFP11 fragment) (from UniProt A0A0N7KIY3 1-352)”, the binding entry in experiment [3] was “binds”.
